Test results as given in PubChem BioAssay AID1508600 (Functional Genomics Laboratory (NCATS/FGL), 2020).
Hit rate of the full screen: of about 53,000 sequences, about 3,700 (7%) were called active.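 How the source made its calls: active means gene knockdowns whose robust z-score for IL-1 alpha signal is at least 2 or at most -2, so actives lie on both sides; inactive means the rest.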 The list shows a part of the results.

experiment: Components of the Cytosolic LPS Sensing Pathway: Gene Identification via Genome-wide siRNA Screen; details: RAW264.7 macrophages, IL-1a HTRF, actives lie on both sides, screened at 100 nM (by protocol), cells primed 5 h with Pam3CSK4 first;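 further: robust z of the log signal after scaling to non-targeting control siRNA wells of the plate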
Method in brief: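 IL-1a HTRF of supernatants after 24 hour LipidA transfection of Pam3CSK4-primed (5 hours) RAW264.7 cells, 48h post-siRNA transfection (100 nM). Scores: percent of plate negative-control median, then log-based robust z-score.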

Sequence	z-score
CGUGAAUCCUAACAUGAGATT against Sec11c	inactive: 0.0104
CGCUAGAAGGAUUAUACCUTT against Vps13c	inactive: 1.29
GGUAUUUAGAAACAUCAGUTT against Wls	active: -2.16
GGAGACACGGCCCUAAUCATT against Ddah2	inactive: -1.35
GGCGAGUUUGUUCUCUUAGTT against Olfr11	inactive: 0.874
AGUUCGACUUUGACGACGGTT against Jph4	inactive: 1.28
GGAAGUCCUUGCAUUCCUCTT against Dlec1	inactive: 0.816
GGAAAAGGAAAAAUAACCUTT against Ptma	inactive: -0.555
GCAGAUCUAUAACAUUACATT against Rbsn	inactive: 0.366
CCAUAUACCCUUGAAUUCCTT against Tmem185b	inactive: 0.154
CCUCGAAAUACGAAGGCAATT against Amz2	inactive: 0.232
GGUGCAUUAUAAGAAUCGCTT against Fhl1	inactive: 0.144
GGUGUACACAUAAAUAUUGTT against Prl8a6	inactive: -0.121
CCAUGUUAGAACUGGGACUTT against Tafa2	active: 2.44
GCUGACAAUACUGAAUUGGTT against Pkhd1l1	inactive: -0.67
GGAAUAUUUGCUUCGACAGTT against Alkbh6	inactive: 0.885
GCUGAACUGUCUCAGCUCATT against Tmem81	active: 2.06
GCAAGUCCUACAAUACAACTT against Tk1	active: 5.5
GGUGAAGCUAUUUUUCUCATT against Nadsyn1	inactive: 0.45
GCGAAGCCAUGUUUCACCUTT against Selenoo	inactive: -1.99
GCAUCAUUGUCAAUCAUAUTT against Olfr578	active: -2.25
GGAAGUGAUACUGUCUAUATT against Rfx3	inactive: 0.52

Pulled one by one from the entries so far:
Sequence	z-score
GGAAUAUUUGCUUCGACAGTT against Alkbh6	inactive: 0.885
GGUAUUUAGAAACAUCAGUTT against Wls	active: -2.16
CCAUAUACCCUUGAAUUCCTT against Tmem185b	inactive: 0.154

Continuation.

Sequence	z-score
GCAAACGCAGUACUAUGGUTT against Pak2	inactive: -0.818
GGAAAACCUUGGACAGGAGTT against Olfr876	inactive: -0.267
GGAGCAUUUUAUUCAGAUGTT against Rad23b	active: 2.22
GCCUCCCUGAAUGCCUAUATT against Sectm1b	inactive: -1.81
GGGAUACGUCAUCUGUUAATT against Ilf3	inactive: -0.667
GCCAGGAAUAGUGAUUAUUTT against Atp11c	inactive: -1.19
GGAGGGAGUGAAAACUUUCTT against Ankrd46	inactive: 0.616
GGUUUACUUCCCAUACCUGTT against Pold1	inactive: 0.701
GGUUGUCAAUCAUGUCUAUTT against Gpr137c	inactive: 1.09
CGAAGCUGUUCAUAAGUAUTT against Gsr	inactive: 1.06
CCCUAUGGUGAAAUCUGUCTT against Prrc1	inactive: -1.8
GGUGAUAGAGUAGAAGAUGTT against Hdgfl3	inactive: 0.3
GCCCGUGUAGUGCUGGAUUTT against Tbca	inactive: -1.2
GCUUCACAAUUCCUGAUAATT against Aak1	inactive: 0.398
GGAGUUUGACAAGAAGUACTT against Dynll1	inactive: -0.303
GGUAUAGUUAAAGUGAGAGTT against Sp8	inactive: -0.883
GGACUAUGGGAUUUCAGUUTT against Txndc16	inactive: 0.263
GGAGAAGGAUAGAGAUGGUTT against Phf5a	inactive: -1.84
CCUACCAAAACGACUAUAUTT against Pnma3	inactive: -1.29
GGCGAGAGGUACGACAAUATT against H60a	inactive: -1.96
CCAAAAGGUUCGAGUUUCATT against Padi4	inactive: 1.57
GCCAAUACCAAUCAAGCUGTT against Celf4	inactive: -1.97

Sequence	z-score
GCAUCUCACGCUACAGAUUTT against Dock2	inactive: 1.97
GCUGUUACCCUUAUGCAGCTT against Supt7l	inactive: 0.486
CGGAAACGAAGACUUGAAATT against Arhgef4	inactive: -0.151
UAAUCAUGAGCUCUUCCGATT against N4bp2	inactive: 0.527
GGCAUCUGUUACCCAGAAUTT against Zfp384	inactive: -1.92
GGUUGGAUGCUUUCUAAGATT against Pot1a	inactive: 0.923
GGCCAAGGUGAGAGUACUGTT against Hsd3b5	inactive: 0.23
CCUAUAAUCCCAGAGAAAATT against Cobll1	inactive: 0.558
GGAGGGAGUCUCUGUUACUTT against Pus10	inactive: 0.513
GGCUCUGUCUCUUAAUGGGTT against Gpx5	inactive: 0.53
GCCCAGUACAACCCUCCUATT against Fbxw19	inactive: 0.0161
GCACAAUUUCGUGUGAGCUTT against Sfxn5	inactive: 0.643
GGUGGAUACACAGGACAAATT against Invs	inactive: 1.58
GGACGAACUCAUCAACAGUTT against Gtf2ird1	inactive: -0.00436
CGCAAUAAAGAAUUCUCCCTT against Rex1bd	inactive: -1.75
GGAGCCAGUGACAAUAAAUTT against Mtag2	inactive: -1.1
CGCCUUUUGGAAUAUUUCATT against Mblac2	inactive: -0.352
GGUCUCCACUGAGGACUGUTT against Ndufa2	inactive: 0.284
GGAGCUGUACGGCAAGAUCTT against Gipc1	inactive: 0.477
CCUGGAGGUGACCGCUUUATT against Cdc20	inactive: -0.221
GGUCUUCCUAAGAGAGACATT against Slc51b	inactive: -1.03
GAUUGUGGACUUAAGGAUUTT against Vmn1r75	inactive: 0.773

Sequence	z-score
GGACCUGGAGCUGAGAAGATT against Rpap3	inactive: 0.181
GCUGGUAGCAUUCUUAUCCTT against Xylt2	inactive: 0.529
UAUUAAACUCUUGAGACCGTT against Oxa1l	inactive: -0.571
GGACAGUGUCUAGAUAUUGTT against Fbln5	inactive: -1.18
CCUGCUGCUUAUUAAAGUUTT against Bckdk	inactive: -0.308
GCUGAAAACACACCUAGCATT against Gin1	inactive: 1.19
GGUGGAUAGAGCAAUUGAATT against Jph1	inactive: 1.5
GCUCGAUCAUGGGCCUAUATT against Crls1	inactive: -0.189
GGUUCGUGUGGUUUAACAUTT against Afg3l1	inactive: 1.55
CGUGUUAUGACAAAAGAGGTT against Defb39	inactive: 0.206
GGGAAAAAGAUGCAAGUAUTT against Ctnnbip1	inactive: 0.623
GAGGCUCUGUGGAAUUUUATT against Olfr1217	inactive: 1.1
GGAAAUACUCAUCAAGUCUTT against Phldb2	inactive: -1.33
GGUCAUCGAUCACAUUGAUTT against Thbs4	inactive: 0.197
GGAUAAGUACACGCUUCCCTT against Sox2	inactive: 0.657
GGUCAAUCAUUUCUAUGUUTT against Pdcd6	inactive: -1.1
UGAUGAUGGGUGUGGUUGUTT against Olfr887	inactive: -1.53
GCAUCGACAACCUCUCUAGTT against Hba-x	active: 3.15
GGAGAUGACUGAUUUGAAGTT against Ccnb3	inactive: -0.109
GGAAUUCACAGAUACCGUGTT against Guca1a	inactive: 0.93
GGUUAUUCAGCUCCUUAAATT against Paxip1	inactive: 0.978
GGAGAAUGGCCACGUAAAATT against Marcks	inactive: 0.294

Single entries from the list.
For z-score, GGAUAAGUACACGCUUCCCTT against Sox2 reads inactive: 0.657
For z-score, GGAAAUACUCAUCAAGUCUTT against Phldb2 reads inactive: -1.33
For z-score, GGUCAUCGAUCACAUUGAUTT against Thbs4 reads inactive: 0.197

The list continues.

Sequence	z-score
GGAUAACCCUGUAAUGAUATT against Dctn4	inactive: -0.0106
GGCUGAUGCAGACAGUUUCTT against Brap	inactive: -0.655
GGACCUUUGUUGUCAGUCATT against Zfp319	inactive: -1.79
GGAGGACAAGGAGGAUGACTT against Samd10	inactive: 0.324
CCGAGUUCCUUCAACAUGCTT against Hoxb7	inactive: -0.105
GCGGUAUCCUAGCUGUGAATT against Brsk1	inactive: -0.0667
GGUGGCACGAUGCUAUGUUTT against Hcar2	inactive: -0.981
GCAUGAGUUAGACCAUAAUTT against Phf12	active: -2.59
GGUUUUCCGGACCAAAAUUTT against Rasa3	inactive: 0.466
GGUCUCUCGGACUUUUUCCTT against Adipor1	inactive: -0.765
GGAAGUGUUGGCUAUUUUUTT against Kctd10	inactive: 1.04
GCUUUUUAUCCGUGUCGAUTT against 4930474N05Rik	inactive: 0.501
GGAGGAGUGUUGUAUCUGCTT against Rnf141	inactive: 1.17
GGAGUAAACGACAAAAUGGTT against Gosr1	inactive: 0.172
CCUACUAAAGGUGAUCUGATT against Mtmr10	inactive: -1.35
GGAGAGAGUGCAUCUAUAATT against Gdi2	inactive: 0.184
CGACGAAGAUUCUGACAAUTT against Gpr153	inactive: -0.217
CGUUGGUACCAAGAAGUACTT against Snai3	inactive: -0.99
GGUCCAAAAGUGACAUAUATT against Ddx4	inactive: -1.51
GCCAUAUCUGUCCAAGUUATT against Sdf2l1	inactive: -1.4
